Paper PMC10682411
No constants are given. Whether binding was seen depends on the method and setting. In cells and extracts the contact can be indirect. Some results given as binding are weak or reduced against the parent protein; the word gives no strength. For part of these data: Where a sequence is shown, tags or fusion partners need not be part of it.

Protein sequences, listed by entry. Tags and fused reporters are not part of them.
UniProt Q86WV6: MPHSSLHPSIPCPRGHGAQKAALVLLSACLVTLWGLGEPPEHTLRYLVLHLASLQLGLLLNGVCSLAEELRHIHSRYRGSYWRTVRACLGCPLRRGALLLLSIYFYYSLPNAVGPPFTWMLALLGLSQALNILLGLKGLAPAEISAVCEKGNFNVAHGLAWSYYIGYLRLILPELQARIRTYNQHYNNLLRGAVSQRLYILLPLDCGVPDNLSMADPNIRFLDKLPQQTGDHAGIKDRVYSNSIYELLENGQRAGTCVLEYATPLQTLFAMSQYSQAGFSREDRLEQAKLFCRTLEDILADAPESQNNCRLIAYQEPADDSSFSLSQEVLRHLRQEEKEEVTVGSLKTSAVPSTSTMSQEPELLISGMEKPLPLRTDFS

Columns and labels:
[1] = biological target: MITA (endogenous, decidual tissue) (human (endogenous in decidual tissue)) (UniProt Q86WV6); assay: co-IP; endogenous co-IP from decidual tissue lysates (URSA group and control group), western & IP lysate; immunoprecipitation with a monoclonal antibody against MITA on magnetic beads, overnight at 4 °C; normal rabbit IgG as negative control; western blot
[2] = biological target: MITA (endogenous, M1 and M2 macrophages polarized from THP-1 cells) (human (endogenous in THP-1)) (UniProt Q86WV6); assay: co-IP; endogenous co-IP from lysates of M1 and M2 macrophages polarized from THP-1 cells, western & IP lysate; immunoprecipitation with a monoclonal antibody against MITA on magnetic beads, overnight at 4 °C; normal rabbit IgG as negative control; western blot
HA-tagged MITA (HA-MITA) = HA-tagged MITA (HA-MITA) (UniProt Q86WV6); assay: co-IP; exogenous co-IP from 293 T cells cotransfected with a Flag-TRIM38 construct, HA-MITA and His-K48, collected 24 h after transfection; lysis in 25 mM Tris-HCl pH 7.4, 150 mM NaCl, 1% NP-40, 0.25% sodium deoxycholate, 1 mM EDTA; immunoprecipitation with antibodies against Flag, HA or His on magnetic beads; normal rabbit IgG as negative control; western blot

B1: TRIM38 (endogenous, decidual tissue) (protein, UniProt O00635 1-465)
chain: MASTTSTKKMMEEATCSICLSLMTNPVSINCGHSYCHLCITDFFKNPSQKQLRQETFCCPQCRAPFHMDSLRPNKQLGSLIEALKETDQEMSCEEHGEQFHLFCEDEGQLICWRCERAPQHKGHTTALVEDVCQGYKEKLQKAVTKLKQLEDRCTEQKLSTAMRITKWKEKVQIQRQKIRSDFKNLQCFLHEEEKSYLWRLEKEEQQTLSRLRDYEAGLGLKSNELKSHILELEEKCQGSAQKLLQNVNDTLSRSWAVKLETSEAVSLELHTMCNVSKLYFDVKKMLRSHQVSVTLDPDTAHHELILSEDRRQVTRGYTQENQDTSSRRFTAFPCVLGCEGFTSGRRYFEVDVGEGTGWDLGVCMENVQRGTGMKQEPQSGFWTLRLCKKKGYVALTSPPTSLHLHEQPLLVGIFLDYEAGVVSFYNGNTGCHIFTFPKASFSDTLRPYFQVYQYSPLFLPPPGD
Which binding [1] does the source give for B1 here?
The binding was “binds”.

B2: TRIM38 (endogenous, M1 and M2 macrophages polarized from THP-1 cells) (protein, UniProt O00635 1-465)
chain: MASTTSTKKMMEEATCSICLSLMTNPVSINCGHSYCHLCITDFFKNPSQKQLRQETFCCPQCRAPFHMDSLRPNKQLGSLIEALKETDQEMSCEEHGEQFHLFCEDEGQLICWRCERAPQHKGHTTALVEDVCQGYKEKLQKAVTKLKQLEDRCTEQKLSTAMRITKWKEKVQIQRQKIRSDFKNLQCFLHEEEKSYLWRLEKEEQQTLSRLRDYEAGLGLKSNELKSHILELEEKCQGSAQKLLQNVNDTLSRSWAVKLETSEAVSLELHTMCNVSKLYFDVKKMLRSHQVSVTLDPDTAHHELILSEDRRQVTRGYTQENQDTSSRRFTAFPCVLGCEGFTSGRRYFEVDVGEGTGWDLGVCMENVQRGTGMKQEPQSGFWTLRLCKKKGYVALTSPPTSLHLHEQPLLVGIFLDYEAGVVSFYNGNTGCHIFTFPKASFSDTLRPYFQVYQYSPLFLPPPGD
Which binding [2] does the source give for B2 here?
Its binding is “binds”.

B3: Flag-tagged TRIM38 (Flag-TRIM38) (protein, UniProt O00635 1-465)
chain: MASTTSTKKMMEEATCSICLSLMTNPVSINCGHSYCHLCITDFFKNPSQKQLRQETFCCPQCRAPFHMDSLRPNKQLGSLIEALKETDQEMSCEEHGEQFHLFCEDEGQLICWRCERAPQHKGHTTALVEDVCQGYKEKLQKAVTKLKQLEDRCTEQKLSTAMRITKWKEKVQIQRQKIRSDFKNLQCFLHEEEKSYLWRLEKEEQQTLSRLRDYEAGLGLKSNELKSHILELEEKCQGSAQKLLQNVNDTLSRSWAVKLETSEAVSLELHTMCNVSKLYFDVKKMLRSHQVSVTLDPDTAHHELILSEDRRQVTRGYTQENQDTSSRRFTAFPCVLGCEGFTSGRRYFEVDVGEGTGWDLGVCMENVQRGTGMKQEPQSGFWTLRLCKKKGYVALTSPPTSLHLHEQPLLVGIFLDYEAGVVSFYNGNTGCHIFTFPKASFSDTLRPYFQVYQYSPLFLPPPGD
With B3 as the binder, how does the binding (HA-tagged MITA (HA-MITA)) read?
Its binding is “binds”.
